Results from one PubChem assay

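Vaccinia-infected cells with a two-color viral stage reporter; Venus fluorescence read on a plate reader; the cell line is not named here; timing not stated here.
The test concentration is not given here.
Percent change in Venus reporter signal; lower (more negative) values mean stronger inhibition of that viral stage.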

Values are in %.
How 0% and 100% were set is not given here.
Common to all entries: measured here: Venus reporter, other viral stage.
This is a side read-out of the assay, for part of the compounds, not drawn at random.

| Compound | activity change (Venus) (%) |
|---|---|
| `C[C@H](CO)N1C[C@H](C)[C@@H](CN(C)C(=O)Nc2ccc(-c3ccccc3)cc2)OCc2ccccc2-c2ccccc2C1=O` | -61.45 |
| `C[C@@H]1CCCCO[C@H](CN(C)S(=O)(=O)c2ccc(Cl)cc2)[C@H](C)CN([C@H](C)CO)C(=O)c2cc(NS(=O)(=O)c3ccc(F)cc3)ccc2O1` | -26.01 |
| `O=S(=O)(c1ccccc1F)N1CC[C@@H]2[C@H]1c1cc(-c3ccc(F)cc3)ccc1N[C@@H]2CO` | -36.75 |
| `C[C@H](CO)N1C[C@H](C)[C@@H](CN(C)S(=O)(=O)c2ccccc2F)Oc2ncc(C#Cc3ccccc3F)cc2C1=O` | -27.1 |
| `C[C@@H]1CCCCO[C@H](CN(C)Cc2ccc3c(c2)OCO3)[C@H](C)CN([C@@H](C)CO)C(=O)c2cc(NS(=O)(=O)c3ccc(F)cc3)ccc2O1` | -51.89 |
| `CC(C)CC#Cc1ccc2c(c1)O[C@H](CN(C)CC1CCOCC1)[C@@H](C)CN([C@@H](C)CO)S2(=O)=O` | -50.52 |
| `Cc1ccc(-c2ccc3c(c2)O[C@@H](CN(C)Cc2cncnc2)[C@H](C)CN([C@@H](C)CO)S3(=O)=O)cc1` | -33.44 |
| `C[C@@H]1CCCCO[C@@H](CN(C)Cc2ccc(C(F)(F)F)cc2)[C@@H](C)CN([C@@H](C)CO)C(=O)c2cc(NS(=O)(=O)c3cccs3)ccc2O1` | -45.14 |
| `COc1cccc(S(=O)(=O)N2CCCCN3[C@H](C2)[C@H](c2ccc(C#CCC(C)C)cc2)[C@@H]3CO)c1` | -58.87 |
| `C[C@H](CO)N1C[C@H](C)[C@H](CN(C)Cc2ccc(Cl)c(Cl)c2)OCCCC[C@H](C)Oc2ccc(NS(C)(=O)=O)cc2C1=O` | -51.45 |
| `COc1ccc(CN(C)C[C@@H]2OCCCC[C@H](C)Oc3ccc(NS(=O)(=O)c4ccc(Cl)cc4)cc3C(=O)N([C@H](C)CO)C[C@H]2C)cc1` | -74.68 |
| `O=C(C[C@@H]1CC[C@@H]2[C@H](COC[C@H](O)CN2Cc2cccc(C(F)(F)F)c2)O1)NCc1ccncc1` | -26.3 |
| `C[C@@H]1CN([C@@H](C)CO)C(=O)c2cc(/C=C/c3ccccc3)cnc2O[C@@H]1CN(C)C(=O)c1ccc2c(c1)OCO2` | -26.38 |
| `COc1ccccc1NC(=O)N1CCCCN2[C@H](CO)[C@@H](c3ccc(-c4cccc(F)c4)cc3)[C@@H]2C1` | -41.58 |
| `CCCc1cn(CC[C@@H]2CC[C@@H](NS(=O)(=O)c3ccc(-c4ccccc4)cc3)[C@H](CO)O2)nn1` | -27.61 |
| `COc1ccccc1C#Cc1ccc2c(c1)O[C@H](CN(C)C)[C@H](C)CN([C@@H](C)CO)S2(=O)=O` | -42.53 |
| `C[C@H]1CN([C@@H](C)CO)C(=O)c2cc(C#Cc3cccc(F)c3)cnc2O[C@@H]1CN(C)C(=O)C1CCCCC1` | -34.15 |
| `O=C(Cc1cccnc1)N1CCCCN2[C@H](CO)[C@H](c3ccc(/C=C/c4ccccc4)cc3)[C@@H]2C1` | -37.65 |
| `COc1ccc(-c2ccc3c(c2)O[C@H](CN(C)C(=O)c2ccccc2F)[C@H](C)CN([C@H](C)CO)S3(=O)=O)cc1` | -24.91 |
| `O=C(NC1CCCCC1)N1CC(=O)N2[C@H](C1)[C@@H](c1ccc(-c3ccccc3)cc1)[C@@H]2CO` | -40.72 |
| `C[C@@H]1CN([C@H](C)CO)S(=O)(=O)c2ccc(C#Cc3ccncc3)cc2O[C@H]1CN(C)C(=O)c1ccncc1` | -21.46 |
| `CCC(=O)N1CC(=O)N2[C@H](C1)[C@H](c1ccc(C#Cc3cccc(F)c3)cc1)[C@@H]2CO` | -51.06 |
| `C[C@@H]1CN([C@@H](C)CO)C(=O)c2cc(/C=C/c3ccccc3)cnc2O[C@H]1CN(C)Cc1ccc2c(c1)OCO2` | -55.07 |
| `CO[C@@H](CN(C)S(=O)(=O)c1ccc(F)cc1)[C@H](C)CN([C@H](C)CO)S(=O)(=O)c1cccc(Cl)c1` | -29.31 |
| `C[C@H](CO)N1C[C@H](C)[C@H](CN(C)C(=O)NC2CCCCC2)Oc2c(NS(=O)(=O)c3ccc(Cl)cc3)cccc2C1=O` | -43.08 |
| `O=C(C[C@H]1CC[C@@H]2[C@H](COC[C@H](O)CN2Cc2cccc(C(F)(F)F)c2)O1)NCc1ccc(F)cc1` | -36.42 |
| `C[C@@H]1CN([C@@H](C)CO)C(=O)Cc2cc(NC(=O)NC3CCCCC3)ccc2O[C@H]1CN(C)Cc1ccc(C(F)(F)F)cc1` | -47.29 |
| `C[C@@H]1CCCCO[C@H](CN(C)Cc2ccccc2)[C@H](C)CN([C@@H](C)CO)C(=O)c2cc(NC(=O)Nc3ccc(F)cc3)ccc2O1` | -71.72 |
| `CN1c2ccc(-c3ccc(F)cc3)cc2[C@@H]2[C@@H](CCN2C(=O)Nc2cc(F)ccc2F)[C@@H]1CO` | -60.03 |
| `C[C@H](CO)N1C[C@H](C)[C@H](CN(C)Cc2ccc(Cl)c(Cl)c2)Oc2ccc(NS(=O)(=O)c3ccccc3)cc2CC1=O` | -47.78 |
| `C=CCN1C(=O)[C@]2(O[C@H](CCn3cc(CCO)nn3)[C@@H]([Si](C)(C)c3ccc(OC)cc3)[C@@H]2C)c2cc(N3C(=O)c4cccc5cccc3c45)ccc21` | -80.08 |

The first 3 entries again:

Compound	activity change (Venus) (%)
C[C@H](CO)N1C[C@H](C)[C@@H](CN(C)C(=O)Nc2ccc(-c3ccccc3)cc2)OCc2ccccc2-c2ccccc2C1=O	-61.45
C[C@@H]1CCCCO[C@H](CN(C)S(=O)(=O)c2ccc(Cl)cc2)[C@H](C)CN([C@H](C)CO)C(=O)c2cc(NS(=O)(=O)c3ccc(F)cc3)ccc2O1	-26.01
O=S(=O)(c1ccccc1F)N1CC[C@@H]2[C@H]1c1cc(-c3ccc(F)cc3)ccc1N[C@@H]2CO	-36.75

The results are deposited in PubChem (AID1053133; Broad Institute, 2014).